Results on four molecules are retold here after doi:10.1101/595835.

By UniProt entry, the sequences of proteins in these tests, tags left out. Where a name states a change or a piece, a line headed by the entry shows the natural chain unless it says otherwise. Chains listed by the source or under a name are the forms on record and can include a tag or linker.
biotinylated AviTag-haBiP^V461F(19-654), AMPylated (G3I8R9, form named): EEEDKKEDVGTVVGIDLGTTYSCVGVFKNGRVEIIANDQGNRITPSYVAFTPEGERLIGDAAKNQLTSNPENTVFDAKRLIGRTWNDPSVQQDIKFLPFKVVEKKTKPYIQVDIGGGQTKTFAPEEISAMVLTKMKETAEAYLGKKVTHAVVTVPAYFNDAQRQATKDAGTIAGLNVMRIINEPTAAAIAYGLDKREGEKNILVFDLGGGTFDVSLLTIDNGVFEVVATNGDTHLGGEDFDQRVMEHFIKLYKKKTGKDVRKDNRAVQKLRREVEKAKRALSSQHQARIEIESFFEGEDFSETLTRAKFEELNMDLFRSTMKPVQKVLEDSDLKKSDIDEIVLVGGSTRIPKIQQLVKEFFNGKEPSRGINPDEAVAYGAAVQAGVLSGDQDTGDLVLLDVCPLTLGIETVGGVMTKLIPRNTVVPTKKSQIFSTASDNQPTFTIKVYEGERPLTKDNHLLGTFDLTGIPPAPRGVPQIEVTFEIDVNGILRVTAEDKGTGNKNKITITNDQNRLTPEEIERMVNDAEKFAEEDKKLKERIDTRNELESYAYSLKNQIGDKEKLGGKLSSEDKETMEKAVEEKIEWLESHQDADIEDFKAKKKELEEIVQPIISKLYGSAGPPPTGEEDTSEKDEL

For assay [1], the target named is biotinylated AviTag-haBiP^V461F(19-654), AMPylated (Chinese hamster) (UniProt G3I8R9). Kind of assay: BLI.
In assay [2] the target is wild-type FICD, orthogonally tagged copies co-expressed in CHO-K1 cells (UniProt Q9BVA6). Put plainly: pull-down + co-IP.
Assay [3] has as its target FICD^L258D, orthogonally tagged copies co-expressed in CHO-K1 cells (UniProt Q9BVA6). Kind of assay: pull-down + co-IP.
Assay [4] has as its target Oregon Green-labelled FICD^L258D-NC (human) (UniProt Q9BVA6). Kind of assay: AUC.

No constants are given. Whether binding was seen depends on the method and setting. For some of these results: Binding seen in cells or lysates may run through a third protein. Some entries that bind do so weakly or less than the wild type. For some of these results: Where a sequence is shown, tags or fusion partners need not be part of it.

B1: S-SFICD^A252C-H363A-C421S (trap), covalent disulphide-linked dimer (domain or fragment, UniProt Q9BVA6 104-445)
chain: LEARAALNQALEMKRQGKREKAQKLFMHALKMDPDFVDALTEFGIFSEEDKDIIQADYLYTRALTISPYHEKALVNRDRTLPLVEEIDQRYFSIIDSKVKKVMSIPKGNSALRRVMEETYYHHIYHTVAIEGNTLTLSEIRHILETRYCVPGKSLEEQNEVIGMHAAMKYINTTLVSRIGSVTISDVLEIHRRVLGYVDPVEAGRFRTTQVLVGHHIPPHPQDVEKQMQEFVQWLNSEEAMNLHPVEFAALAHYKLVYIAPFIDGNGRTSRLLMNLILMQAGYPPITIRKEQRSDYYHVLEAANEGDVRPFIRFIAKSTETTLDTLLFATTEYSVALPEAQP
modifications: disulphide bond between the two chains through the introduced Cys252
In the case of B1, the binding entry in assay [1] is recorded as “binds”.

B2: wild-type FICD, orthogonally tagged copies co-expressed in CHO-K1 cells (protein, UniProt Q9BVA6 1-458)
chain: MMLIPMASVMAVTEPKWVSVWSRFLWVTLLSMVLGSLLALLLPLGAVEEQCLAVLKGLYLLRSKPDRAQHAATKCTSPSTELSITSRGATLLVAKTKASPAGKLEARAALNQALEMKRQGKREKAQKLFMHALKMDPDFVDALTEFGIFSEEDKDIIQADYLYTRALTISPYHEKALVNRDRTLPLVEEIDQRYFSIIDSKVKKVMSIPKGNSALRRVMEETYYHHIYHTVAIEGNTLTLSEIRHILETRYAVPGKSLEEQNEVIGMHAAMKYINTTLVSRIGSVTISDVLEIHRRVLGYVDPVEAGRFRTTQVLVGHHIPPHPQDVEKQMQEFVQWLNSEEAMNLHPVEFAALAHYKLVYIHPFIDGNGRTSRLLMNLILMQAGYPPITIRKEQRSDYYHVLEAANEGDVRPFIRFIAKCTETTLDTLLFATTEYSVALPEAQPNHSGFKETLPVKP
modifications: biotin on the AviTag (copy with His6-AviTag)
For the molecule B2, in assay [2], the binding result is reported as “binds”.

B3: FICD^L258D, orthogonally tagged copies co-expressed in CHO-K1 cells (protein, UniProt Q9BVA6 1-458)
chain: MMLIPMASVMAVTEPKWVSVWSRFLWVTLLSMVLGSLLALLLPLGAVEEQCLAVLKGLYLLRSKPDRAQHAATKCTSPSTELSITSRGATLLVAKTKASPAGKLEARAALNQALEMKRQGKREKAQKLFMHALKMDPDFVDALTEFGIFSEEDKDIIQADYLYTRALTISPYHEKALVNRDRTLPLVEEIDQRYFSIIDSKVKKVMSIPKGNSALRRVMEETYYHHIYHTVAIEGNTLTLSEIRHILETRYAVPGKSDEEQNEVIGMHAAMKYINTTLVSRIGSVTISDVLEIHRRVLGYVDPVEAGRFRTTQVLVGHHIPPHPQDVEKQMQEFVQWLNSEEAMNLHPVEFAALAHYKLVYIHPFIDGNGRTSRLLMNLILMQAGYPPITIRKEQRSDYYHVLEAANEGDVRPFIRFIAKCTETTLDTLLFATTEYSVALPEAQPNHSGFKETLPVKP
modifications: biotin on the AviTag (copy with His6-AviTag)
As to B3, in assay [3], the binding entry is “no binding”.

B4: Oregon Green-labelled FICD^L258D-NC (domain or fragment, UniProt Q9BVA6 104-445)
chain: CLEARAALNQALEMKRQGKREKAQKLFMHALKMDPDFVDALTEFGIFSEEDKDIIQADYLYTRALTISPYHEKALVNRDRTLPLVEEIDQRYFSIIDSKVKKVMSIPKGNSALRRVMEETYYHHIYHTVAIEGNTLTLSEIRHILETRYAVPGKSDEEQNEVIGMHAAMKYINTTLVSRIGSVTISDVLEIHRRVLGYVDPVEAGRFRTTQVLVGHHIPPHPQDVEKQMQEFVQWLNSEEAMNLHPVEFAALAHYKLVYIHPFIDGNGRTSRLLMNLILMQAGYPPITIRKEQRSDYYHVLEAANEGDVRPFIRFIAKCTETTLDTLLFATTEYSVALPEAQP
modifications: Oregon Green 488 on the added N-terminal cysteine (labelling efficiency 9.6%)
Turning to B4, the binding result in assay [4] was “no binding (tested: 1.6 µM to 31 pM)”.
